From paper PMC11404752

The chains behind the UniProt entries cited, without tags or fusion partners. Where a name states a change or a piece, a line headed by the entry shows the natural chain unless it says otherwise. A line that says so, or that is headed by a name, gives the form on record, which may keep a tag or linker.
soluble Fms-like tyrosine kinase-1 (human (endogenous in serum)) (P17948, form named): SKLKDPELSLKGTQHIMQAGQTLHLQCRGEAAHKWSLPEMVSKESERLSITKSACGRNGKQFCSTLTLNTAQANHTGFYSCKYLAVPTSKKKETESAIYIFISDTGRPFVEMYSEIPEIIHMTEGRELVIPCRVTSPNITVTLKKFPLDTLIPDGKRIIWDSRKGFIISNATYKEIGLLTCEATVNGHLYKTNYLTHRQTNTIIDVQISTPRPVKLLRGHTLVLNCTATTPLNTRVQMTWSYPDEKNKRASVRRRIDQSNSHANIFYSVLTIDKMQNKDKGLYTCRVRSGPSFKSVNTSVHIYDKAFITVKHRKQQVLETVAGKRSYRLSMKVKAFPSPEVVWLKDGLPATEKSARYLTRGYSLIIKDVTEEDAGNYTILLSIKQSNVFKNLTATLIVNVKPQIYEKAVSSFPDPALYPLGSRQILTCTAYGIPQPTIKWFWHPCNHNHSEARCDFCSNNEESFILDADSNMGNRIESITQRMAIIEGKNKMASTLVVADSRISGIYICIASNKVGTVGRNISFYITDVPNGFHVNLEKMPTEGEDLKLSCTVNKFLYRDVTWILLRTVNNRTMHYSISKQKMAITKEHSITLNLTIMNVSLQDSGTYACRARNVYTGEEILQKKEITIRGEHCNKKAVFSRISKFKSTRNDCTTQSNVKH
UniProt P02647: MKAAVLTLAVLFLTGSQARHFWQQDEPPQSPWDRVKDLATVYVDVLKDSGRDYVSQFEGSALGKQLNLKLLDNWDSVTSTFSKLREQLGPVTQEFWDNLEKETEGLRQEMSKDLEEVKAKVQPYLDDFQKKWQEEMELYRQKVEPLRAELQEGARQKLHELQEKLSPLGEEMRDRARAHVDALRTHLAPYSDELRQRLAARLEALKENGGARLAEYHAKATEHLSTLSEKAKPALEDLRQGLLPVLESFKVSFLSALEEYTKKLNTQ

How the values were obtained:
[1] = target: soluble Fms-like tyrosine kinase-1 (human (endogenous in serum)) (UniProt P17948); assay: co-IP; anti-PlGF or anti-Flt-1 (2 ug/mL) added to a serum pool for 30 minutes at room temperature, captured by Dynabeads Streptavidin, immunoblotting of PlGF, sFlt-1, CD9, ApoA-I and ApoB
[2] = target: T1, placental growth factor (human (endogenous in serum)) (UniProt P49763); assay: as above
T1 sequence: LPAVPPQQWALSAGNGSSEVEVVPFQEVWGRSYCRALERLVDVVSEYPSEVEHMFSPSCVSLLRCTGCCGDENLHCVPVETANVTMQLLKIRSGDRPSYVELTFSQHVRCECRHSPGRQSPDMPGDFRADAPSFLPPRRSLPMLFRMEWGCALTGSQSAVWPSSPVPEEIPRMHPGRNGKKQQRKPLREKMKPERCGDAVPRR

Row | Substance | binding [1] | binding [2]
1 | apolipoprotein A-I (from UniProt P02647) | binds | binds
2 | apolipoprotein B (human (endogenous in serum)) |  | binds

No constants are given. Whether binding was seen depends on the method and setting. In cells and extracts the contact can be indirect. Binding calls can cover weak binding; strength is not graded here.
